Results taken from PubChem BioAssay AID493014 (National Center for Advancing Translational Sciences (NCATS), 2011).
The list shows a part of the results. Further columns of the screen follow, without active or inactive calls. The list favours compounds with an active or inconclusive main result. The note in brackets gives the kind of curve behind each potency; many fits are weak.

Experiment: qHTS Assay to Find Inhibitors of Chronic Active B-Cell Receptor Signaling
Conditions: ABC-DLBCL IkBa-CBG/CBR reporter, luminescence ratio (green luciferase fused to IkBa over red control in TMD8 lymphoma cells), 4 h
Summary of the method: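 Concentration-response series (up to 46 uM) were applied to TMD8 dual-reporter cells for 4 h at 37C with doxycycline. Green/red ratio, after filter-overlap correction, defined %Activity; red signal alone was normalised to basal cells and zero luminescence.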

[1] = measured here: CBR red luminescence, cell number
[2] = measured here: IkBa-CBG green luminescence

| SMILES | AC50 [1] | AC50 [2] |
| --- | --- | --- |
| CCCOc1ccc(C2NC(=S)NC(c3ccccc3)=C2C(=O)Nc2ccc(C)cc2)cc1OC (stereo not given) | 8.2 µM [falling, partial curve, poor fit] |  |
| Cc1c(C(=O)N2CCC2)oc2ccc(Br)cc12 | 10.3 µM [rising, partial curve] |  |
| O=C1CSC(=Nc2ccccc2[N+](=O)[O-])N1 | 35.5 µM [rising, single point] |  |
| COc1ccc(/C=N/NC(=O)CNC(=O)COc2ccccc2)cc1 | 6.51 µM [rising, single point] |  |
| CCCCOC(=O)Nc1cccc(C(C)=O)c1 | 11.2 µM [rising, partial curve, poor fit] |  |
| N/C(Cc1ccc(Cl)cc1Cl)=N\OC(=O)c1ccccc1F | 15.8 µM [rising, single point] |  |
| C=CC[n+]1c(-c2ccc(OCC)cc2)csc1NNC(=O)Nc1ccccc1 | 0.00651 µM [falling, full curve, poor fit] |  |
| CC1c2cc3c(cc2CCN1C(=O)c1cccc(F)c1)OCCCO3 (stereo not given) | 22.4 µM [falling, single point] |  |
| CC1(c2cccc(Br)c2)NC(=O)N(CC(=O)Nc2ccc(F)cc2)C1=O (stereo not given) | 11.2 µM [falling, single point] |  |
| Cc1ccc(NC(=O)CNCc2cccs2)c(Br)c1 | 3.98 µM [rising, full curve, poor fit] |  |
| CCc1ccc(Nc2nnc(SCC(=O)NC(=O)CN3CCCC3=O)s2)cc1 | 11.6 µM [falling, partial curve] |  |
| CC(C)(C)Nc1scc(-c2ccccc2)[n+]1-c1ccccc1 | 8.91 µM [rising, partial curve, poor fit] |  |
| CCOc1ccc(NC(=O)CCC(=O)NNC(=O)c2ccco2)cc1 | 3.55 µM [rising, full curve, poor fit] |  |
| CCCCOc1ccc(-c2c(C#N)c(N)[nH]c(=S)c2C#N)cc1 | 12.6 µM [rising, partial curve] |  |
| COc1ccccc1C(=O)Nc1ccc(S(=O)(=O)N2CCOCC2)cc1 | 4.11 µM [falling, single point] |  |
| NC(=O)c1ccc(N2CCCCC2)c(N2C(=O)CCC2=O)c1 | 12.6 µM [rising, single point] |  |
| CC(=O)N1CCN(S(=O)(=O)c2ccc3c(c2)CC(=O)N3)CC1 | 29.1 µM [rising, single point] |  |
| COc1ccc(C(CC(=O)c2ccccc2)C2CCCCC2=O)cc1 (stereo not given) | 2.91 µM [falling, single point] |  |
| O=C(Nc1ccc(OCc2ccccc2)cc1)c1cccnc1 | 6.51 µM [rising, partial curve, poor fit] |  |
| CC(C)(C)c1csc(NNC(=O)c2ccc(Br)cc2)n1 | 35.5 µM [falling, single point] |  |
| CC[C@]12c3[nH]c4cc(CCC(=O)N(C)C)ccc4c3CCN1C(=O)[C@@H](CC(=O)NCCCOC)C[C@@H]2C(=O)N1CCN(C(=O)c2ccco2)CC1 | 16.4 µM [rising, partial curve, poor fit] |  |

Complete entries from above.
CCCCOC(=O)Nc1cccc(C(C)=O)c1 is listed as AC50 [1]: 11.2 µM [rising, partial curve, poor fit]
O=C(Nc1ccc(OCc2ccccc2)cc1)c1cccnc1 is listed as AC50 [1]: 6.51 µM [rising, partial curve, poor fit]
C=CC[n+]1c(-c2ccc(OCC)cc2)csc1NNC(=O)Nc1ccccc1 is listed as AC50 [1]: 0.00651 µM [falling, full curve, poor fit]
COc1ccc(C(CC(=O)c2ccccc2)C2CCCCC2=O)cc1 (stereo not given) is listed as AC50 [1]: 2.91 µM [falling, single point]

Carrying on:

| SMILES | AC50 [1] | AC50 [2] |
| --- | --- | --- |
| CCCNc1c(NS(=O)(=O)c2ccc(NC(=O)CC)cc2)c(=O)oc2ccccc12 | 10 µM [falling, partial curve, poor fit] |  |
| COc1cc(NC(=O)c2ccnnc2)cc(C(=O)Nc2cccc(C(F)(F)F)c2)c1 | 11.2 µM [falling, partial curve] |  |
| CCn1c(/C=C/c2ccccc2C)nc2ccccc2c1=O | 10 µM [falling, partial curve, poor fit] |  |
| NS(=O)(=O)c1ccc(Nc2nc(-c3ccc4ccccc4c3)cs2)cc1 | 20.6 µM [rising, partial curve] |  |
| COc1ccccc1N1CCN(C(=O)C2CCN(S(=O)(=O)c3ccc4c(c3)CC(C)N4C(=O)C3CC3)CC2)CC1 (stereo not given) | 35.5 µM [falling, single point] |  |
| O=C(O)c1cccc(CSc2nnc(-c3ccc(Cl)cc3)o2)c1 | 14.1 µM [falling, partial curve, poor fit] |  |
| COc1ccc(Nc2sc(C(=O)Nc3cccc(Cl)c3)c(N)c2C(=O)Nc2ccccc2OC)cc1 | 16.4 µM [falling, partial curve] | 16.4 µM [rising, single point] |
| Cn1ccnc1C(O)c1cc(C(C)(C)C)c(O)c(C(C)(C)C)c1 (stereo not given) | 11.2 µM [falling, partial curve] |  |
| CC(=O)c1cc2c(cc1NC(=O)Cn1nc(-c3ccc(C)cc3)ccc1=O)OCO2 | 0.2 µM [rising, full curve, poor fit] |  |
| CCCCNc1ncnc2c1cnn2-c1ccc(C)cc1C | 1.3 µM [rising, partial curve, poor fit] |  |
| CCN(CC)Cc1c(O)ccc2occ(C(=O)c3ccccc3)c12 | 6.31 µM [rising, single point] |  |
| CCOC(=O)c1[nH]c2ccc(OC)cc2c1NC(=O)CN1CCC2(CC1)OCCO2 | 0.00651 µM [rising, full curve, poor fit] |  |
| N/C(=N\NC(=O)c1cccs1)c1cc2ccccc2oc1=O | 18.4 µM [falling, single point] |  |
| CC(C)CC(=O)NC(=S)NNC(=O)c1cccc([N+](=O)[O-])c1 | 6.31 µM [rising, single point] |  |
| COc1cccc(/C=N/Nc2ncnc3scc(-c4ccccc4)c23)c1O | 0.92 µM [falling, full curve] |  |
| Cc1ccccc1CSc1nnnn1-c1ccc(C(N)=O)cc1 | 0.708 µM [rising, full curve, poor fit] |  |
| O=C1c2ccccc2-c2ccc(C(=O)N3CCOCC3)cc21 | 32.6 µM [falling, single point] |  |
| COc1ccc(-c2cc(=O)[nH][nH]2)cc1 | 9.2 µM [falling, partial curve, poor fit] |  |
| COc1ccc(-c2cc(-c3ccccc3O)[nH]n2)cc1 | 8.91 µM [falling, partial curve, poor fit] |  |
| COc1ccc(N2CC(C(=O)N(C)CC(=O)Nc3ccc(Cl)c(C(F)(F)F)c3)CC2=O)c(OC)c1 (stereo not given) | 6.51 µM [rising, partial curve, poor fit] |  |
| C/C(Nc1ccc(F)cc1)=C(/C#N)C(N)=O | 0.251 µM [falling, full curve, poor fit] |  |

| SMILES | AC50 [1] | AC50 [2] |
| --- | --- | --- |
| CC(C)(C)NC(=O)[C@@H]1C[C@@H]2CCCC[C@@H]2CN1C[C@@H](O)[C@H](Cc1ccccc1)NC(=O)[C@H](CC(N)=O)NC(=O)c1ccc2ccccc2n1 | 11.2 µM [falling, partial curve, poor fit] |  |
| CCOC(=O)CSc1nc2ccccc2c(=O)n1CC(C)C | 0.794 µM [falling, full curve, poor fit] |  |
| COc1ccc(OC)c(NS(=O)(=O)c2ccc(NC(=O)c3ccc(NS(C)(=O)=O)cc3)cc2)c1 | 0.116 µM [falling, full curve, poor fit] |  |
| CN(C)S(=O)(=O)c1cccc(NC(=O)c2ccc3c(c2)OCCO3)c1 | 2.06 µM [falling, full curve, poor fit] |  |
| NC(=O)CN1C(=O)NC2(CCOc3ccccc32)C1=O (stereo not given) | 35.5 µM [rising, single point] |  |
| COc1ccc(/C=C/CN2CCC(CO)(Cc3ccccc3Cl)CC2)cc1 | 20 µM [falling, single point] |  |
| CCn1c(CNc2ccc(Cl)cc2)nnc1SCC(=O)OC1CCCCC1 | 10.3 µM [falling, partial curve, poor fit] |  |
| COc1ccc2c(c1)c(C(O)CN1CCC(Cc3ccccc3)CC1)c(C)n2C (stereo not given) | 5.01 µM [falling, full curve] |  |
| Cc1cc(NC(=O)c2cc(-c3ccc(O)cc3)on2)no1 | 10 µM [falling, partial curve, poor fit] |  |
| O=C(c1ccsc1)N1CCCC(N2CCN(c3ccccc3F)CC2)C1 (stereo not given) | 17.8 µM [falling, partial curve, poor fit] |  |
| CCOc1ccc(Nc2nc3c(c(=O)[nH]2)CCCC3)cc1 | 25.9 µM [rising, single point] |  |
| COc1ccc(/C=C/c2nc(-c3ccccc3)cc(=O)[nH]2)cc1 | 35.5 µM [rising, single point] |  |
| Cc1cc2oc(=O)cc(CN3CCCCC3)c2cc1C | 6.31 µM [rising, single point] |  |
| O=C(NCCCN1CCOCC1)c1ccc2c(c1)N(Cc1c(F)cccc1Cl)C(=O)c1ccccc1S2 | 15.8 µM [falling, single point] |  |
| CC(C)COc1ccc(/C(=N/O)c2ccccc2)cc1 | 13 µM [rising, partial curve] | 23.1 µM [falling, single point] |
| CCOC(=O)c1cnc(SCC(=O)N2CCc3ccccc32)nc1N | 29.1 µM [rising, single point] |  |
| COc1ccc(C(=O)NCCNc2nc3ccc(C)cc3cc2C#N)cc1 | 3.98 µM [falling, single point] |  |
| COc1cccc(C(=O)Nc2cc(NC(=O)c3cccs3)ccc2C)c1OC | 1.58 µM [rising, full curve, poor fit] | 6.31 µM [falling, partial curve, poor fit] |
| Cc1ccc(-n2ncc3c(Nc4ccc(Oc5ccccc5)cc4)ncnc32)c(C)c1 | 10 µM [rising, partial curve, poor fit] |  |
| Oc1ccccc1-c1nc2cnccn2c1Nc1ccc2c(c1)OCCO2 | 6.51 µM [rising, single point] |  |
